{"sequences": {"note": "By UniProt entry, the sequences of proteins in these tests, tags left out. Where a name states a change or a piece, a line headed by the entry shows the natural chain unless it says otherwise.", "UniProt Q6PIJ6": "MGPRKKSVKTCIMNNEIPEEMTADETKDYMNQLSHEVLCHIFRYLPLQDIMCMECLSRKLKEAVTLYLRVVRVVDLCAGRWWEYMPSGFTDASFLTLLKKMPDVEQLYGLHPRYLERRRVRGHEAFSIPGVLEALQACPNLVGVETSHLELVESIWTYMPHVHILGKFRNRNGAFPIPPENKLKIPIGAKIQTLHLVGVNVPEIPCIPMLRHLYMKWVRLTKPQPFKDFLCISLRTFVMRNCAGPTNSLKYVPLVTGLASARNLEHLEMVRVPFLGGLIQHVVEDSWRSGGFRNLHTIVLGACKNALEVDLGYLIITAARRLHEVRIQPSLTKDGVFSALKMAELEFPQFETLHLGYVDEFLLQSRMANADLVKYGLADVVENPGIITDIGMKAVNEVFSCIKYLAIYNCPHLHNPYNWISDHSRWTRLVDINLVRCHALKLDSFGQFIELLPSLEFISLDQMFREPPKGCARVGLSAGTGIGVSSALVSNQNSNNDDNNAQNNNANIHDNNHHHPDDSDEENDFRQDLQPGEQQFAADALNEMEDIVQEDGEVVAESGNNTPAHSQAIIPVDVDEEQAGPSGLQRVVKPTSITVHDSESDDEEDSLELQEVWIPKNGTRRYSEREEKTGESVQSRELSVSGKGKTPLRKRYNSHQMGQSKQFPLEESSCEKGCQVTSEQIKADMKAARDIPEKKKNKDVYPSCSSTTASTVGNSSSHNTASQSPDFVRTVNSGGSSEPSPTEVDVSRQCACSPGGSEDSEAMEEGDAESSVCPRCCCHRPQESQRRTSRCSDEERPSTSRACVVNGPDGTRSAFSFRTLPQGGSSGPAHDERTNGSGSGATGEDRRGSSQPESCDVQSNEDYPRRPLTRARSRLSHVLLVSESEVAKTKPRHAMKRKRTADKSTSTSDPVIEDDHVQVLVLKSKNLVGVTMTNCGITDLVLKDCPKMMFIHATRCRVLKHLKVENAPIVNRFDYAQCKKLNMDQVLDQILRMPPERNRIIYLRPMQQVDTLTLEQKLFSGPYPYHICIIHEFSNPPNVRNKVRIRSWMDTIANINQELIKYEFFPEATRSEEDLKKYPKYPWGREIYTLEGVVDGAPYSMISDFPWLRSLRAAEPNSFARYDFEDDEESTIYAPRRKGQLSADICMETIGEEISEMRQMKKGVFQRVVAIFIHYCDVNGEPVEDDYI", "UniProt Q9NX38": "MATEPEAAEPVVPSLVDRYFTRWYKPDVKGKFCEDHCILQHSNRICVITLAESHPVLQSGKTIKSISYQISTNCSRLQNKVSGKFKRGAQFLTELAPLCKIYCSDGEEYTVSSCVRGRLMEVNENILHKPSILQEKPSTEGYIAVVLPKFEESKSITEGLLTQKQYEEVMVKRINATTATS", "UniProt Q9BZQ8": "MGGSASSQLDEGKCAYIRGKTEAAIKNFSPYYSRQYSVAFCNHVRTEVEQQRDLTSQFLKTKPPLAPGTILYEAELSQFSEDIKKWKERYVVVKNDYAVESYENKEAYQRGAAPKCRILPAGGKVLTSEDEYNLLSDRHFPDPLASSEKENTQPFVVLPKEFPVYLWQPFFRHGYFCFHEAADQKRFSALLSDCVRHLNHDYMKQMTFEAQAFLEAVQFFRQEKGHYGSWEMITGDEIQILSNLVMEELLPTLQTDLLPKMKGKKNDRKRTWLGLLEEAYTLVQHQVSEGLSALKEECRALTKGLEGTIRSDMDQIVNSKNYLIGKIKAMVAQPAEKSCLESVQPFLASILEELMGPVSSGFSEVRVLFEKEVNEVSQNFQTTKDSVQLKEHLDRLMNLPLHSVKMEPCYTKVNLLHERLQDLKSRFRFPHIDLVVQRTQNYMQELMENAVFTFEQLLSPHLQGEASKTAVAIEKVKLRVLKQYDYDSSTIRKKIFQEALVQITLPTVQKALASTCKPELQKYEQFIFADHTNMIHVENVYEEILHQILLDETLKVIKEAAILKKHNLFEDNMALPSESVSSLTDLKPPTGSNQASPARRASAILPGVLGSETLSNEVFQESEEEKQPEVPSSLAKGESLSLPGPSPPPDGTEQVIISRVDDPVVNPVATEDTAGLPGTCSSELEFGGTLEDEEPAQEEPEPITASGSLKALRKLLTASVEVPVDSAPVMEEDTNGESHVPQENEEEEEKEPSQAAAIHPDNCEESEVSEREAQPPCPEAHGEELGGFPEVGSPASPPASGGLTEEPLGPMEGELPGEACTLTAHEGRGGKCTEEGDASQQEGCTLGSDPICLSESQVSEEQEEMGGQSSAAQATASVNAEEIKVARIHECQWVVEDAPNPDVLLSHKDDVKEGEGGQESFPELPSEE", "UniProt O94868": "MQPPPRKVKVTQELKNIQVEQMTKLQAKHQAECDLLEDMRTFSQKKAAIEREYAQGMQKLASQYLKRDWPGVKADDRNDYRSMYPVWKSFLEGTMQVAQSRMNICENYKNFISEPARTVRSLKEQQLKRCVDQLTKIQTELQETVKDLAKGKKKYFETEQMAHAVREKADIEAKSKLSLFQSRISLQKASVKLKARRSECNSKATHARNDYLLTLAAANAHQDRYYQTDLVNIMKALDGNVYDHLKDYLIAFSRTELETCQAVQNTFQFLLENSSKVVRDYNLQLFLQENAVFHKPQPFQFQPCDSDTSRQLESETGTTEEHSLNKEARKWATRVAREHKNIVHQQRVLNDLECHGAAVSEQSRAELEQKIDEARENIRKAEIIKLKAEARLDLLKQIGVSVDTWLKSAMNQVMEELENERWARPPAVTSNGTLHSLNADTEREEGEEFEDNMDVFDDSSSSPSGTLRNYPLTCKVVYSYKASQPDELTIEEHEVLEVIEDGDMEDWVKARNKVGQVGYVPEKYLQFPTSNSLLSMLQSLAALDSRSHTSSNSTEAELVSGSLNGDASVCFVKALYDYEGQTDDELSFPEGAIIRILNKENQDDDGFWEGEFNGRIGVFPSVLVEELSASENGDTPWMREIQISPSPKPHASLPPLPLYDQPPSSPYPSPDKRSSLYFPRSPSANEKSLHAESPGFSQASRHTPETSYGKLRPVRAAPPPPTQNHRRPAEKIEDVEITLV", "UniProt Q5VWN6": "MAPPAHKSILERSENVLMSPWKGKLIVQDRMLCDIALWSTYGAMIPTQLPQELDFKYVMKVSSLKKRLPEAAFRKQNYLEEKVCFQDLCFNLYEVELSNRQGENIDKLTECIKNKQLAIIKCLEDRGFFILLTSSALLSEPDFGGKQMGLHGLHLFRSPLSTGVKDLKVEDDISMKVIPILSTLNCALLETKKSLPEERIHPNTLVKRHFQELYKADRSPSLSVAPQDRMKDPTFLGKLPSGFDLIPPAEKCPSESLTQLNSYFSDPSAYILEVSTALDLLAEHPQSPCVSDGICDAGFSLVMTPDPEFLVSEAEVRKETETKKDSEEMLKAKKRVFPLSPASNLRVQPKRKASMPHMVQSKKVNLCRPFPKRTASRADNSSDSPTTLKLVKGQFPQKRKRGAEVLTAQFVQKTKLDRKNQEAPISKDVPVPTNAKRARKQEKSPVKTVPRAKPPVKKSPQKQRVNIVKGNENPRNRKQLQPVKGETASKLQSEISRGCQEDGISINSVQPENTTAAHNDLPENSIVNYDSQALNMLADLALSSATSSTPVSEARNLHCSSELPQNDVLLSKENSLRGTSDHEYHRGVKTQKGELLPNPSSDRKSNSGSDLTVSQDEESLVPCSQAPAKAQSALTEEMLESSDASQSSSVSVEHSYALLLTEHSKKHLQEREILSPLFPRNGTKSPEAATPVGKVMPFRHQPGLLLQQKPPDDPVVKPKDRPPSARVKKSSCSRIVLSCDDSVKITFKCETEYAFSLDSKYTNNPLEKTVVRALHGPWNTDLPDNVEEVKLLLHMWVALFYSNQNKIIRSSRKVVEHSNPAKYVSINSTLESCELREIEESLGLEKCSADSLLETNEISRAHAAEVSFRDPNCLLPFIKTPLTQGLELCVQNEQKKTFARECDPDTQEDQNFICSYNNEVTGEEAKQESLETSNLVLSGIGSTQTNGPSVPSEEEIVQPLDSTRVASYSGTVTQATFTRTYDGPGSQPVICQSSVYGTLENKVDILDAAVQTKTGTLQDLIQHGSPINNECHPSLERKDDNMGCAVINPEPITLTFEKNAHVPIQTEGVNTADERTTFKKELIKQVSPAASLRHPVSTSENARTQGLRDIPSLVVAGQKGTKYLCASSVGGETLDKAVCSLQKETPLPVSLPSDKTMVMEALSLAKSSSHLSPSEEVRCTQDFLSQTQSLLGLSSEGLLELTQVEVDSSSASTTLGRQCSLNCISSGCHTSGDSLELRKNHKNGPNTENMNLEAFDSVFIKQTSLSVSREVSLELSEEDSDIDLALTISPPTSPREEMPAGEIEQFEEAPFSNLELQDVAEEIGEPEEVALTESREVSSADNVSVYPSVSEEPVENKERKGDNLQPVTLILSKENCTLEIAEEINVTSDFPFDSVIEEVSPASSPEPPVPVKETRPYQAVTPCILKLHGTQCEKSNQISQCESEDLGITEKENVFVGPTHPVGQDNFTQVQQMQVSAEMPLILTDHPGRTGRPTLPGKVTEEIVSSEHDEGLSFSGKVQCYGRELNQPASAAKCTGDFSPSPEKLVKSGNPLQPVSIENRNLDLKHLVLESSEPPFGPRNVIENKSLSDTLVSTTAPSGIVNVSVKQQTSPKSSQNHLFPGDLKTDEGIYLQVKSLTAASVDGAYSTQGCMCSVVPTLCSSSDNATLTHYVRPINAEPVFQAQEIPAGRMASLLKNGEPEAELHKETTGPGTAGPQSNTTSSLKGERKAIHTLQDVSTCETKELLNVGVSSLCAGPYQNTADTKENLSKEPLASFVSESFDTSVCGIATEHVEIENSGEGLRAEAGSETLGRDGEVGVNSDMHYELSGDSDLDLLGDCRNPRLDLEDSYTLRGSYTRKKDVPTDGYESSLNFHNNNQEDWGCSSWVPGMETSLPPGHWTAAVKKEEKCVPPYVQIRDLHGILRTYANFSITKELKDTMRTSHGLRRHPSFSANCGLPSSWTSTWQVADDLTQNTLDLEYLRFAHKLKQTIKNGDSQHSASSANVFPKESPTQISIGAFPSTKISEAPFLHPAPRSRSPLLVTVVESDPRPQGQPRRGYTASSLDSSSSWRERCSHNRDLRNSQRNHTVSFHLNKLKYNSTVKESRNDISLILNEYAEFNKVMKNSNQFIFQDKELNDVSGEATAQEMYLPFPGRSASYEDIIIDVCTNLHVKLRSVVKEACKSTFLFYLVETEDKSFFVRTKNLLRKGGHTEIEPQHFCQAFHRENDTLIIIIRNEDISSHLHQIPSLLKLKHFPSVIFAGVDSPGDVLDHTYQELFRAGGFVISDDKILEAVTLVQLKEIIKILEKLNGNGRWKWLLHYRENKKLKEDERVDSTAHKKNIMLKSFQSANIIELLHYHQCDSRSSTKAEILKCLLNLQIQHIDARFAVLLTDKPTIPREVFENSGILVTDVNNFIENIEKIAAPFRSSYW", "UniProt P16591": "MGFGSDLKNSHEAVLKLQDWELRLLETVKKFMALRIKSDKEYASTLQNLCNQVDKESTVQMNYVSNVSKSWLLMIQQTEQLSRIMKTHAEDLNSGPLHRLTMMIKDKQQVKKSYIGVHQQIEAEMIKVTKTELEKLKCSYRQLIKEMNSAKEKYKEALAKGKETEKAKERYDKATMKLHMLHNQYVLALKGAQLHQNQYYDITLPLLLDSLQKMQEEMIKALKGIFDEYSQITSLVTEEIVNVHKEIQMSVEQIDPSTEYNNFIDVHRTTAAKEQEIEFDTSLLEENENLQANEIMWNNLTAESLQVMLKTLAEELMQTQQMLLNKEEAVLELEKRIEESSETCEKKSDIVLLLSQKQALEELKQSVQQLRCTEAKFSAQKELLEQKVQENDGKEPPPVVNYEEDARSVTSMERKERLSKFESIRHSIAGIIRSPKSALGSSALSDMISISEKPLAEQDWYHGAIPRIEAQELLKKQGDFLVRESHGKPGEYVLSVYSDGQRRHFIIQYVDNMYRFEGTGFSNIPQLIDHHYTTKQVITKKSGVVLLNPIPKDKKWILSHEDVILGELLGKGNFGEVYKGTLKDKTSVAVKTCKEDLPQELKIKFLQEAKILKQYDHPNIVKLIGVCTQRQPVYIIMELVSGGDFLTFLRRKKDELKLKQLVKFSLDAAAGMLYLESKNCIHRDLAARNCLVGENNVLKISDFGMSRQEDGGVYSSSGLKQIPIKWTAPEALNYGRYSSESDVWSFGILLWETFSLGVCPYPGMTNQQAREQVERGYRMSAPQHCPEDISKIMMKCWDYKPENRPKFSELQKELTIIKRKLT"}, "source": "the supplement of paper PMC12067093", "about": "“Discovery and optimisation of a covalent ligand for TRIM25 and its application to targeted protein ubiquitination” (Chemical Science, 2025)", "compound": "CC1Cc2ccccc2N1C(=O)C1CCCN(C1)C(=O)CCl (mixture of isomers) [TRIM25 ligand 11 (diastereomer mixture)]", "assay": "probe-labelled cysteine peptide fold change vs DMSO (competition) (log2 fold change); higher = less target engagement (more negative = stronger competition)", "details": "THP-1, incubation time: 4 h", "note": "The list shows a part of the results.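 Also: competitive chemoproteomic profiling in live THP-1 cells with an iodoacetamide desthiobiotin (IA-DTB) probe, comparing probe-labelled peptide intensities in compound-treated cells against DMSO-treated controls.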"}
{"target": "FBXO38_Q6PIJ6_39_DYMNQLSHEVLCHIFR (UniProt Q6PIJ6)", "values": [{"measurement": "probe-labelled cysteine peptide fold change", "setting": "10 µM", "value": -0.0649}, {"measurement": "probe-labelled cysteine peptide fold change", "setting": "50 µM", "value": 0.0174}]}
{"target": "FBXW2_Q9UKT8_189_LWDVSTGQCVYGIQTHTCAAVK (UniProt Q9UKT8)", "values": [{"measurement": "probe-labelled cysteine peptide fold change", "setting": "10 µM", "value": 0.114}, {"measurement": "probe-labelled cysteine peptide fold change", "setting": "50 µM", "value": 0.156}]}
{"target": "FASN_P49327_135_GTHTGVWVGVSGSETSEALSRDPETLVGYSMVGCQR (UniProt P49327)", "values": [{"measurement": "probe-labelled cysteine peptide fold change", "setting": "10 µM", "value": 0.0623}, {"measurement": "probe-labelled cysteine peptide fold change", "setting": "50 µM", "value": -0.0891}]}
{"target": "FAM206A_Q9NX38_37_FCEDHCILQHSNR (UniProt Q9NX38)", "values": [{"measurement": "probe-labelled cysteine peptide fold change", "setting": "10 µM", "value": -0.0207}, {"measurement": "probe-labelled cysteine peptide fold change", "setting": "50 µM", "value": 0.109}]}
{"target": "FCHO1_O14526_371_APACSPEAAAAQLR (UniProt O14526)", "values": [{"measurement": "probe-labelled cysteine peptide fold change", "setting": "10 µM", "value": -0.000522}, {"measurement": "probe-labelled cysteine peptide fold change", "setting": "50 µM", "value": 0.0121}]}
{"target": "FAM129A_Q9BZQ8_763_EPSQAAAIHPDNCEESEVSER (UniProt Q9BZQ8)", "values": [{"measurement": "probe-labelled cysteine peptide fold change", "setting": "10 µM", "value": 0.00176}, {"measurement": "probe-labelled cysteine peptide fold change", "setting": "50 µM", "value": -0.417}]}
{"target": "FDPS_P14324_183_RGQICWYQKPGVGLDAINDANLLEACIYR (UniProt P14324)", "values": [{"measurement": "probe-labelled cysteine peptide fold change", "setting": "10 µM", "value": -0.335}, {"measurement": "probe-labelled cysteine peptide fold change", "setting": "50 µM", "value": 0.0351}]}
{"target": "FASN_P49327_630_EAHLPPGAMAAVGLSWEECK (UniProt P49327)", "values": [{"measurement": "probe-labelled cysteine peptide fold change", "setting": "10 µM", "value": 0.0913}, {"measurement": "probe-labelled cysteine peptide fold change", "setting": "50 µM", "value": 0.284}]}
{"target": "FANCF_Q9NPI8_89_GPVPGLANFQALGHCDVLLSLR (UniProt Q9NPI8)", "values": [{"measurement": "probe-labelled cysteine peptide fold change", "setting": "10 µM", "value": -0.121}, {"measurement": "probe-labelled cysteine peptide fold change", "setting": "50 µM", "value": 0.0984}]}
{"target": "FAM129B_Q96TA1_334_AEVCVR (UniProt Q96TA1)", "values": [{"measurement": "probe-labelled cysteine peptide fold change", "setting": "10 µM", "value": 0.00142}, {"measurement": "probe-labelled cysteine peptide fold change", "setting": "50 µM", "value": 0.0861}]}
{"target": "FBXO38_Q6PIJ6_242_NCAGPTNSLK (UniProt Q6PIJ6)", "values": [{"measurement": "probe-labelled cysteine peptide fold change", "setting": "10 µM", "value": 0.0457}, {"measurement": "probe-labelled cysteine peptide fold change", "setting": "50 µM", "value": 0.232}]}
{"target": "FASN_P49327_1459_AINCATSGVVGLVNCLR (UniProt P49327)", "values": [{"measurement": "probe-labelled cysteine peptide fold change", "setting": "10 µM", "value": 0.0038}, {"measurement": "probe-labelled cysteine peptide fold change", "setting": "50 µM", "value": 0.0169}]}
{"target": "FASN_P49327_1471_CVLLSNLSSTSHVPEVDPGSAELQK (UniProt P49327)", "values": [{"measurement": "probe-labelled cysteine peptide fold change", "setting": "10 µM", "value": 0.0358}, {"measurement": "probe-labelled cysteine peptide fold change", "setting": "50 µM", "value": 0.00309}]}
{"target": "FEM1B_Q9UK73_244_ADVVELLLSHADCDR (UniProt Q9UK73)", "values": [{"measurement": "probe-labelled cysteine peptide fold change", "setting": "10 µM", "value": 0.0229}, {"measurement": "probe-labelled cysteine peptide fold change", "setting": "50 µM", "value": -0.171}]}
{"target": "FCHSD2_O94868_260_TELETCQAVQNTFQFLLENSSK (UniProt O94868)", "values": [{"measurement": "probe-labelled cysteine peptide fold change", "setting": "10 µM", "value": 0.0893}, {"measurement": "probe-labelled cysteine peptide fold change", "setting": "50 µM", "value": 0.26}]}
{"target": "FANCD2_Q9BXW9_1342_LLHHLCGHSK (UniProt Q9BXW9)", "values": [{"measurement": "probe-labelled cysteine peptide fold change", "setting": "10 µM", "value": -0.000318}, {"measurement": "probe-labelled cysteine peptide fold change", "setting": "50 µM", "value": -0.0878}]}
{"target": "FAM208A_Q9UK61_1138_HLLEPLCSDPLK (UniProt Q9UK61)", "values": [{"measurement": "probe-labelled cysteine peptide fold change", "setting": "10 µM", "value": 0.0102}, {"measurement": "probe-labelled cysteine peptide fold change", "setting": "50 µM", "value": -0.117}]}
{"target": "FANCB_Q8NB91_543_LSTNPFPAPYLMPCEIGLEAK (UniProt Q8NB91)", "values": [{"measurement": "probe-labelled cysteine peptide fold change", "setting": "10 µM", "value": -0.275}, {"measurement": "probe-labelled cysteine peptide fold change", "setting": "50 µM", "value": -0.23}]}
{"target": "FANCG_O15287_417_AQDALTLCEELLSR (UniProt O15287)", "values": [{"measurement": "probe-labelled cysteine peptide fold change", "setting": "10 µM", "value": -0.00868}, {"measurement": "probe-labelled cysteine peptide fold change", "setting": "50 µM", "value": -0.0211}]}
{"target": "FAM208A_Q9UK61_1245_FYIHEEEESVLCK (UniProt Q9UK61)", "values": [{"measurement": "probe-labelled cysteine peptide fold change", "setting": "10 µM", "value": 0.0966}, {"measurement": "probe-labelled cysteine peptide fold change", "setting": "50 µM", "value": -0.0668}]}
{"target": "FAM206A_Q9NX38_46_ICVITLAESHPVLQSGK (UniProt Q9NX38)", "values": [{"measurement": "probe-labelled cysteine peptide fold change", "setting": "10 µM", "value": 0.133}, {"measurement": "probe-labelled cysteine peptide fold change", "setting": "50 µM", "value": 0.494}]}
{"target": "FBXW11_Q9UKB1_484_APASTLCLR (UniProt Q9UKB1)", "values": [{"measurement": "probe-labelled cysteine peptide fold change", "setting": "10 µM", "value": 0.102}, {"measurement": "probe-labelled cysteine peptide fold change", "setting": "50 µM", "value": 0.263}]}
{"target": "FBXL12_Q9NXK8_155_QQDPTVLPLLECIVLDR (UniProt Q9NXK8)", "values": [{"measurement": "probe-labelled cysteine peptide fold change", "setting": "10 µM", "value": 0.171}, {"measurement": "probe-labelled cysteine peptide fold change", "setting": "50 µM", "value": 0.18}]}
{"target": "FARSB_Q9NSD9_362_ADIIHACDIVEDAAIAYGYNNIQMTLPK (UniProt Q9NSD9)", "values": [{"measurement": "probe-labelled cysteine peptide fold change", "setting": "10 µM", "value": 0.162}, {"measurement": "probe-labelled cysteine peptide fold change", "setting": "50 µM", "value": 0.139}]}
{"target": "FBXO7_Q9Y3I1_286_LQLLPESFICK (UniProt Q9Y3I1)", "values": [{"measurement": "probe-labelled cysteine peptide fold change", "setting": "10 µM", "value": 0.235}, {"measurement": "probe-labelled cysteine peptide fold change", "setting": "50 µM", "value": 0.0337}]}
{"target": "FAM208B_Q5VWN6_847_CSADSLLETNEISR (UniProt Q5VWN6)", "values": [{"measurement": "probe-labelled cysteine peptide fold change", "setting": "10 µM", "value": -0.156}, {"measurement": "probe-labelled cysteine peptide fold change", "setting": "50 µM", "value": -0.0525}]}
{"target": "FAM49B_Q9NUQ9_223_NLPIENTTDCLSTMASVCR (UniProt Q9NUQ9)", "values": [{"measurement": "probe-labelled cysteine peptide fold change", "setting": "10 µM", "value": -0.148}, {"measurement": "probe-labelled cysteine peptide fold change", "setting": "50 µM", "value": -0.054}]}
{"target": "FAM129A_Q9BZQ8_194_RFSALLSDCVR (UniProt Q9BZQ8)", "values": [{"measurement": "probe-labelled cysteine peptide fold change", "setting": "10 µM", "value": -0.125}, {"measurement": "probe-labelled cysteine peptide fold change", "setting": "50 µM", "value": 0.0225}]}
{"target": "FBP1_P09467_93_SSFATCVLVSEEDK (UniProt P09467)", "values": [{"measurement": "probe-labelled cysteine peptide fold change", "setting": "10 µM", "value": 0.153}, {"measurement": "probe-labelled cysteine peptide fold change", "setting": "50 µM", "value": 0.202}]}
{"target": "FBXL19_Q6PCT2_125_FGLSLMECTICNEIVHPGCLK (UniProt Q6PCT2)", "values": [{"measurement": "probe-labelled cysteine peptide fold change", "setting": "10 µM", "value": 0.0269}, {"measurement": "probe-labelled cysteine peptide fold change", "setting": "50 µM", "value": 0.0183}]}
{"target": "FAM208B_Q5VWN6_186_VIPILSTLNCALLETKK (UniProt Q5VWN6)", "values": [{"measurement": "probe-labelled cysteine peptide fold change", "setting": "10 µM", "value": -0.356}, {"measurement": "probe-labelled cysteine peptide fold change", "setting": "50 µM", "value": -0.372}]}
{"target": "FASN_P49327_135_DPETLVGYSMVGCQR (UniProt P49327)", "values": [{"measurement": "probe-labelled cysteine peptide fold change", "setting": "10 µM", "value": -0.0231}, {"measurement": "probe-labelled cysteine peptide fold change", "setting": "50 µM", "value": -0.0643}]}
{"target": "FCHO2_Q0JRZ9_86_LANCHLDLVR (UniProt Q0JRZ9)", "values": [{"measurement": "probe-labelled cysteine peptide fold change", "setting": "10 µM", "value": 0.0991}, {"measurement": "probe-labelled cysteine peptide fold change", "setting": "50 µM", "value": 0.191}]}
{"target": "FAM160B1_Q5W0V3_624_CNLEAAFFEGHFLK (UniProt Q5W0V3)", "values": [{"measurement": "probe-labelled cysteine peptide fold change", "setting": "10 µM", "value": 0.125}, {"measurement": "probe-labelled cysteine peptide fold change", "setting": "50 µM", "value": 0.181}]}
{"target": "FASN_P49327_2024_EACPELDYFVVFSSVSCGR (UniProt P49327)", "values": [{"measurement": "probe-labelled cysteine peptide fold change", "setting": "10 µM", "value": -0.175}, {"measurement": "probe-labelled cysteine peptide fold change", "setting": "50 µM", "value": -0.179}]}
{"target": "FASN_P49327_1403_KSFYGSTLFLCR (UniProt P49327)", "values": [{"measurement": "probe-labelled cysteine peptide fold change", "setting": "10 µM", "value": -0.118}, {"measurement": "probe-labelled cysteine peptide fold change", "setting": "50 µM", "value": 0.0368}]}
{"target": "FCHSD2_O94868_354_VLNDLECHGAAVSEQSR (UniProt O94868)", "values": [{"measurement": "probe-labelled cysteine peptide fold change", "setting": "10 µM", "value": 0.00661}, {"measurement": "probe-labelled cysteine peptide fold change", "setting": "50 µM", "value": -0.0599}]}
{"target": "FER_P16591_690_NCLVGENNVLK (UniProt P16591)", "values": [{"measurement": "probe-labelled cysteine peptide fold change", "setting": "10 µM", "value": 0.0304}, {"measurement": "probe-labelled cysteine peptide fold change", "setting": "50 µM", "value": 0.141}]}
